For some assays here: Weaker means in comparison with the reference protein, sequence or condition of that experiment. For some assays here: Tags and fusion partners may be left off the protein sequences shown. For some assays here: For at least one entry, the source does not settle the construct or the ends of the probe. For some assays here: A negative result means that nothing was seen under these conditions.
Columns and labels:
[1] = molecular target: T1, USP1 (UniProt O94782); assay: EMSA; conditions: 300 nM USP1; shift weaker than fork DNA; purified recombinant protein; protein details: SF9-made or R&D systems E564; label: Cy3
T1 sequence (limits assumed): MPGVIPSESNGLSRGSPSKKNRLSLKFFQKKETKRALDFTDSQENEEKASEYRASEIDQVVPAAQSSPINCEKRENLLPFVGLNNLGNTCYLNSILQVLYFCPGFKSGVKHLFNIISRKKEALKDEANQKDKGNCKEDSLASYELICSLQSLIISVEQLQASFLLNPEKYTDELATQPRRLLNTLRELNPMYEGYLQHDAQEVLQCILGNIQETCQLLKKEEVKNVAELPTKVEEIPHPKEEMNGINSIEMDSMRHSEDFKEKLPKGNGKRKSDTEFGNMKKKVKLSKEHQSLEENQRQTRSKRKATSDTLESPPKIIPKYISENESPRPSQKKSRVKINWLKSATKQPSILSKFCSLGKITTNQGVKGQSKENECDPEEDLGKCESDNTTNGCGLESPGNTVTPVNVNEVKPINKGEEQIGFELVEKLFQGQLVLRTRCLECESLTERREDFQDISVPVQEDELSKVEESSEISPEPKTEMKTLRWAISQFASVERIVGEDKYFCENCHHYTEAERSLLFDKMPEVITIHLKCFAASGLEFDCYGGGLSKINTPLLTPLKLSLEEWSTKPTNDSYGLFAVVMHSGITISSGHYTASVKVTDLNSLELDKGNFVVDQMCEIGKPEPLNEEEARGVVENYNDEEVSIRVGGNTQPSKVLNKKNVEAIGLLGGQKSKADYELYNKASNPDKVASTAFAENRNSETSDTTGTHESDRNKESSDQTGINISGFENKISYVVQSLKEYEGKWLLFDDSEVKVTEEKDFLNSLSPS

[2] = system: USP1/UAF1 complex; assay: activity assay; conditions: purified recombinant protein, protein details: SF9-made, R&D systems or Boston Biochem, label: Cy3
[3] = system: USP1-Trunc/UAF1 complex USP1 deletion of regions not conserved with USP12 (includes 270-307); assay: activity assay; conditions: Ub-CHOP2, DNA does not stimulate DUB activity, purified recombinant protein, label: Cy3
[4] = molecular target: USP1-Trunc deletion of regions not conserved with USP12 (includes 270-307) (UniProt O94782); assay: EMSA; conditions: 0-200 nM USP1-Trunc; purified recombinant protein; protein details: made in SF9 cells or E. coli; label: Cy3; folded or branched DNA

For “CCAGTGAATTGTTGCTCGGTACCTGCTAACGGTAATCGG (double strand) [40-mer dsDNA]”, the binding result [1] was “binds more weakly”, the functional effect ([2]; Ub-CHOP2 DUB activity maximally stimulated, p<0.0001) was “active” and the functional effect [3] was “not active”.

In the case of “CCAGTGAATTGTTGCTCGGTACCTGCTAACGGTAATCGG / CAGCTATGGGACATTCGATACCGAGCAACAATTCACTGG [40-mer fork DNA]”, the binding result [4] is reported as “no binding”, the functional effect ([2]; DUB activity stimulated, saturating at 1:1, Ub-AMC Km 0.79 to 0.33 uM, kcat up 1.3 fold, folded or branched DNA) is reported as “active” and the functional effect ([3]; folded or branched DNA) is reported as “not active”.

For “CCAGTGAATTGTTGCTCGGTACCTGCTAACGGTAATCGG [40-mer ssDNA (top)]”, the functional effect ([2]; Ub-CHOP2 DUB activity stimulated vs no DNA, p<0.0001, single-stranded DNA) was “active” and the functional effect ([3]; single-stranded DNA) was “not active”.

Reference: US20210186964
